From patent US20190064149A1, “CANCER EXAMINATION METHOD AND EXAMINATION KIT” (THE UNIVERSITY OF TOKYO, priority 2013, published 2019)
These are yes or no findings as the source states them, for the method shown. Binding seen in cells or lysates may run through a third protein. Some results given as binding are weak or reduced against the parent protein; the word gives no strength. Where a sequence is shown, tags or fusion partners need not be part of it.

Protein sequences, listed by entry. Tags and fused reporters are not part of them. Residues count along the entry.
UniProt P84095, residues 1-188: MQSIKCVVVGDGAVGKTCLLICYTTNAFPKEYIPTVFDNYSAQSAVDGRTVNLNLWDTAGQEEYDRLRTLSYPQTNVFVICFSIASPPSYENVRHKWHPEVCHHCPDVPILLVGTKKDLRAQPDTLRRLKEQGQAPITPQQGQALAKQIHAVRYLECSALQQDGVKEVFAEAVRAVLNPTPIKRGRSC

Molecular target: RhoG (UniProt P84095)
Assay: pull-down with ELMO2/GST on glutathione beads from RIPA lysate, western blotting

- binding: binds
B1: fusion protein of ELMO2 and GST (protein, UniProt Q96JJ3 1-362, looked up, not shown: a dimerising Fc or GST)
chain: MPPPSDIVKVAIEWPGANAQLLEIDQKRPLASIIKEVCDGWSLPNPEYYTLRYADGPQLYITEQTRSDIKNGTILQLAISPSRAARQLMERTQSSNMETRLDAMKELAKLSADVTFATEFINMDGIIVLTRLVESGTKLLSHYSEMLAFTLTAFLELMDHGIVSWDMVSITFIKQIAGYVSQPMVDVSILQRSLAILESMVLNSQSLYQKIAEEITVGQLISHLQVSNQEIQTYAIALINALFLKAPEDKRQDMANAFAQKHLRSIILNHVIRGNRPIKTEMAHQLYVLQVLTFNLLEERMMTKMDPNDQAQRDIIFELRRIAFDAESDPSNAPGSGTEKRKAMYTKDYKMLGFTNHINPAM
